PubChem BioAssay AID529 (NMMLSC, 2006)
Screen size: about 24,000 compounds; about 50 (0.2%) were called active. The inconclusive results got no clear call from the source; some entries with a clear call stand among them for comparison.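 How the source made its calls: active means inhibition above 50%; inconclusive means compound itself fluorescent, judged against control cell fluorescence; inactive means the rest.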

Sequences of proteins named here, by UniProt entry; tags and fusion partners are left off.
UniProt P13612, whole entry, looked up: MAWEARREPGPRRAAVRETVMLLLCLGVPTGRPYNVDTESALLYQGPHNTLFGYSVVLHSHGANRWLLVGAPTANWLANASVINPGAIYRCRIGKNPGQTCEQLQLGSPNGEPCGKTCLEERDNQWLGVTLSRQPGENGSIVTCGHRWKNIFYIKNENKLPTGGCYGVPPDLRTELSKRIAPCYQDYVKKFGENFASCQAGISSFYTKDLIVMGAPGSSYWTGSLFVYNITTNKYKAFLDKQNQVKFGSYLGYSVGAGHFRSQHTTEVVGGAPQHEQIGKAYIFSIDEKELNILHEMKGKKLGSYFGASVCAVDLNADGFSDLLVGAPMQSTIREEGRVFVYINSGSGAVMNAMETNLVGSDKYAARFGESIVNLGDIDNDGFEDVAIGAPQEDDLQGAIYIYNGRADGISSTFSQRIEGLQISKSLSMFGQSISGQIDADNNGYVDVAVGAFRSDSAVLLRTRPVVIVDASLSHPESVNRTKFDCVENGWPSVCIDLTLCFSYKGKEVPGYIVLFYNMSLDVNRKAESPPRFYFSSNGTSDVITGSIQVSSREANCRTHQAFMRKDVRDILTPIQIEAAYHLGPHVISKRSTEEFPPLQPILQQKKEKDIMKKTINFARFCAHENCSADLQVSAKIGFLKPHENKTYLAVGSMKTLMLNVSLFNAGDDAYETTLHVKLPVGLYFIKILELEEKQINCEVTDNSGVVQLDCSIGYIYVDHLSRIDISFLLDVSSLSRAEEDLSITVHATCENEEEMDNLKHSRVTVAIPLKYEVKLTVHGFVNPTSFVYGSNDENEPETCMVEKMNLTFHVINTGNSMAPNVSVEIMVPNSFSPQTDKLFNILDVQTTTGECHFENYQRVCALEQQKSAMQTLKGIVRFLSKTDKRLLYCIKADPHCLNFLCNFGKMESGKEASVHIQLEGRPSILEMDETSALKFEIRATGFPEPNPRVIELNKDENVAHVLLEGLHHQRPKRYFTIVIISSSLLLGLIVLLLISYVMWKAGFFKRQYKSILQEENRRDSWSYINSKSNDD

Target: Integrin alpha-4 (Homo sapiens) (UniProt P13612)
Test: blockers of LDV-FITC ligand binding on VLA-4 – Jurkat cells, Mn2+ activated, primary screen (AID 529);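 on inhibition: 0% = Mn2+ stimulated cells lacking compound and 100% = ligand binding without Mn2+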
Settings: LDV-FITC binding with Mn2+, flow cytometry; hits give high values, screened at 10 µM (by protocol), 100% = Mn2+-driven binding gain fully reversed unless noted

Row | Compound | inhibition
1 | CCOC(=O)CSC1=Nc2ccccc2C2=NC(CC(=O)NCc3ccccc3)C(=O)N12 (stereo not given) | inconclusive
2 | O=C(OCCN1C(=O)c2ccccc2C1=O)c1ccc(S(=O)(=O)N2CCCCCC2)cc1 | inconclusive
3 | CC(=O)Nc1nonc1-c1nc2ccccc2n1Cc1ccccn1 | inconclusive
4 | CCCNC(=O)CS(=O)Cc1nc(-c2cccc(OC)c2)oc1C (stereo not given) | inconclusive
5 | CSC1=NCCN1C(=O)c1c(F)cccc1F | inconclusive
6 | CCN1CCCC1CNC(=O)Cn1cnc2sc(C)c(S(=O)(=O)N3CCC(C)CC3)c2c1=O (stereo not given) | inactive: -4%
7 | COCCn1c(SCC(=O)Nc2nnc(C)s2)nnc1-c1c[nH]c2ccccc12 | inconclusive
8 | Cc1ccc(NC(=O)CSc2nnc(Cn3c(=O)sc4ccccc43)n2C)cc1Cl | inactive: 23%
9 | CCOc1cc(S(=O)(=O)NCc2ccc3c(c2)OCO3)ccc1F | inactive: -18.5% [hits give high values, 100% = Mn2+-driven binding gain fully reversed, screened at 10 µM (by protocol)]
10 | O=C(Nc1c(C(=O)N2CCOCC2)cnn1-c1ccccc1)c1ccco1 | inconclusive
11 | C=CCn1c(-c2ccccc2)c[nH]c1=S | inconclusive
12 | O=S(=O)(Nc1ccc2c(c1)OCCO2)c1cnc[nH]1 | inactive: -13%
13 | CC1CCc2c(C(=O)NCCCN3CCOCC3)csc2C1 (stereo not given) | inconclusive
14 | COc1ccc(-c2cc(-c3ccc(F)cc3)nc(N3CCN(C)CC3)n2)cc1 | inactive: 0%
15 | COc1cc(C(=O)NCCc2nc3ccccc3n2C)cc(OC)c1OC | inconclusive
16 | Cc1ccc(Cl)cc1-n1c(=O)cc(N2CCN(C(=O)c3ccco3)CC2)[nH]c1=O | inconclusive
17 | CCOC(=O)Cn1nnnc1C(C(C)C)N(Cc1cc2c(C)cc(C)cc2[nH]c1=O)C1CCCC1 (stereo not given) | inconclusive
18 | CCCC1c2ccc(C)n2CCN1C(=O)Nc1ccccc1Cl (stereo not given) | inconclusive
19 | CNC(=O)CSc1nnc(-c2cc3c(C)nn(-c4ccccc4)c3s2)n1C | inactive: -25%
20 | c1ccc(N2CCOCC2)c(Nc2nc3ccccc3n3cnnc23)c1 | inconclusive
21 | CCOC(=O)c1c(NC(=O)Cn2c(=O)oc3ccccc32)oc(C)c1C(C)=O | inconclusive
22 | CCCCOc1ccc(C(=O)NCc2ccco2)cc1 | inactive: -20.5% [hits give high values, 100% = Mn2+-driven binding gain fully reversed, screened at 10 µM (by protocol)]
23 | Cn1c(Cn2c(=O)sc3ccccc32)nnc1SCC(=O)NCc1ccc(F)cc1 | inconclusive

Row | Compound | inhibition
24 | COc1ccccc1CNC(=O)c1cc2c(=O)n(C)c3ccccc3c2n1C | inactive: -10%
25 | CC(C)C(NS(=O)(=O)c1ccc2c(c1)oc(=O)n2C)C(=O)N1CCN(c2ccccc2F)CC1 (stereo not given) | inconclusive
26 | O=C(NCCC1=CCCCC1)C1CCCN(S(=O)(=O)c2cccc3cccnc23)C1 (stereo not given) | inconclusive
27 | CC(=O)N1CCC2(CC1)CC(=O)c1cc(OCC(=O)NCc3ccco3)ccc1O2 | inconclusive
28 | CCN(c1ccccc1)c1cc(C)nc2nc(C)nn12 | inconclusive
29 | Cc1c2c(n3c(nc4ccccc43)c1C#N)N(Cc1cccnc1)CC2 | inconclusive
30 | CCCCN(CC)CCCNC(=O)c1cc2cc3ccc(OC)cc3nc2o1 | inconclusive
31 | O=C(CSc1nc(-c2ccccc2)cs1)NCc1ccco1 | inconclusive
32 | Cn1c(=O)oc2cc(S(=O)(=O)N3CCCc4ccccc43)ccc21 | inconclusive
33 | COc1cccc(-c2nc(CS(=O)CC(=O)NCc3ccccc3Cl)c(C)o2)c1 (stereo not given) | inconclusive
34 | Cc1cc2cc(CN3C(=O)c4ccccc4C3=O)ccc2n1C | inactive: -5%
35 | CC(O)C(=O)NCCOCCOCCNC(=O)C(C)O (stereo not given) | inactive: -10%
36 | COc1ccc(N2CSC3=C(C#N)C(c4ccc(OC)c(OC)c4)CC(=O)N3C2)c(OC)c1 (stereo not given) | inconclusive
37 | CC1(C)Cc2c(C#N)c(NC3CCCCC3)nc(-c3ccco3)c2CO1 | inconclusive
38 | CCc1cccc(OCC(=O)Nc2ccc(S(=O)(=O)Nc3onc(C)c3C)cc2)c1 | inactive: -3%
39 | Cc1ccc2c(c1)NC(=O)C(CC(=O)N(C)Cc1ccccc1)O2 (stereo not given) | inconclusive
40 | Cc1cc(C(=O)Cn2cncn2)c(C)n1CCc1ccc(F)cc1 | inconclusive
41 | CCOC(=O)c1sc(=S)n2c1[nH]c(=O)c1ccc(C(=O)OC)cc12 | inconclusive
42 | COc1ccccc1OCc1ccc(C(=O)NCCN(C)C)o1 | inactive: -14%
43 | O=S(=O)(Nc1cccc2ncccc12)c1cccs1 | inactive: 37%
44 | O=C(Nc1ccc(N2CCN(Cc3ccccc3Cl)CC2)cc1)c1cccnc1 | inconclusive
45 | O=C(NCc1ccc2c(c1)OCO2)C1CCC(CNc2c(N3CCCC3)c(=O)c2=O)CC1 (stereo not given) | inactive: -14%

Given as tab-separated lines: entries from further up
Row	Compound	inhibition
44	O=C(Nc1ccc(N2CCN(Cc3ccccc3Cl)CC2)cc1)c1cccnc1	inconclusive
45	O=C(NCc1ccc2c(c1)OCO2)C1CCC(CNc2c(N3CCCC3)c(=O)c2=O)CC1 (stereo not given)	inactive: -14%
